Test results taken from PMC9701195, “Structural basis for lipid and copper regulation of the ABC transporter MsbA” (Nature Communications, 2022).
These are yes or no findings as the source states them, for the method shown. Some binding calls cover weakened binding; strength is not graded here.

Target: MsbA (ATP-binding cassette transporter MsbA, Escherichia coli) (Escherichia coli) (UniProt P60752)
Assay: cryo-EM structure; 8 mg/mL copper-loaded MsbA, apo or trapped with ADP-vanadate, in 200 mM NaCl, 20 mM HEPES pH 7.4, 2x CMC C10E5, two-fold molar excess of KDL; C2 symmetry imposed (3.6 Å trapped; 3.88 Å open, 4.06 Å with C1); both purified

B1: MsbA (ATP-binding cassette transporter MsbA, Escherichia coli) (natural protein)
chain: HNDKDLSTWQTFRRLWPTIAPFKAGLIVAGVALILNAASDTFMLSLLKPLLDDGFGKTDRSVLVWMPLVVIGLMILRGITSYVSSYCISWVSGKVVMTMRRRLFGHMMGMPVSFFDKQSTGTLLSRITYDSEQVASSSSGALITVVREGASIIGLFIMMFYYSWQLSIILIVLAPIVSIAIRVVSKRFRNISKNMQNTMGQVTTSAEQMLKGHKEVLIFGGQEVETKRFDKVSNRMRLQGMKMVSASSISDPIIQLIASLALAFVLYAASFPSVMDSLTAGTITVVFSSMIALMRPLKSLTNVNAQFQRGMAACQTLFTILDSEQEKDEGKRVIERATGDVEFRNVTFTYPGRDVPALRNINLKIPAGKTVALVGRSGSGKSTIASLITRFYDIDEGEILMDGHDLREYTLASLRNQVALVSQNVHLFNDTVANNIAYARTEQYSREQIEEAARMAYAMDFINKMDNGLDTVIGENGVLLSGGQRQRIAIARALLRDSPILILDEATSALDTESERAIQAALDELQKNRTSLVIAHRLSTIEKADEIVVVEDGVIVERGTHNDLLEHRGVYAQLHKMQFGQ
notes: MsbA, Escherichia coli, UniProt P60752; msbA gene amplified from E. coli genomic DNA into pCDF-1b (pCDF-MsbA), N-terminal TEV-cleavable His6; Homodimer; co-purifies with copper(II), one site per subunit at the N-terminus (Met-His-Asn-Asp); For cryo-EM it was loaded with copper(II), apo or trapped with ADP-vanadate, with KDL; also called wild-type MsbA; the transporter; source: E. coli (DE3) …
binding: binds
